PubChem BioAssay AID1259308, NCATS | 2017

- Screen: 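Candidate targets for better recombinant protein yield in mammalian cells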 (primary screen)
- Cells: human HEK293 embryonic kidney cells stably expressing firefly luciferase (HEK-CMV-Luc2-Hygro)
- Knock-down reagent: single siRNA against human genes, 0.8 pmol siRNA per well
- Timing: 72 h
- Measured: 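Luciferase light (ONE-Glo) measured on one replicate plate set and viability (CellTiter-Glo) on the other, scaled to a negative control siRNA, with robust z-scores and luciferase per cell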
- Direction: total luciferase, z-score and total luciferase, % of control: higher = more reporter protein produced; luciferase per cell, z-score: higher = more reporter output per viable cell; viable cells, % of control: higher = more viable cells
- Active means: 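Active when the median/MAD z-score for overall luciferase is greater than 3; a gene was taken forward for validation with new siRNAs if at least two of its three siRNAs passed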
- Meaning of the calls: active = raised luciferase; inactive = no rise
Shown is an unselected part of about 59,000 deposited reagents. In the full data, about 1,510 (2.6%) got an active call. 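Calls use total luciferase alone and ignore viability, so some active siRNAs may act by altering cell number.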 A number with no mark means an inactive call. Reagents against one gene are numbered here.

gene symbol,siRNA no.,"total luciferase, z-score","total luciferase, % of control","luciferase per cell, z-score","viable cells, % of control"
CTNND2,1,-0.925,63.5,-1.6,108
CTNND2,2,-0.482,72.3,-0.699,97.1
CTNND2,3,-1.58,50.5,-1.29,79.2
TPRX1,1,0.616,94.1,0.455,93.3
TPRX1,2,0.587,93.6,1.33,73.6
TPRX1,3,-2.17,38.7,-1.69,67.6
TTLL9,1,1.39,110,2.52,63.1
TTLL9,2,0.346,88.8,0.057,97.7
TTLL9,3,-0.213,77.7,-0.719,105
GALE,1,0.0541,83,-0.299,100
GALE,2,0.255,87,0.619,82.6
GALE,3,1.52,112,2.06,73
BRD10,1,-1.35,54.9,-1.28,86.1
BRD10,2,-0.9,64,0.131,69.1
BRD10,3,0.033,82.5,-0.234,98.1
ELOVL2,1,0.468,91.2,0.354,92.8
ELOVL2,2,0.495,91.7,-0.468,116
ELOVL2,3,-0.344,75,-0.0488,84.9
LRWD1,1,0.583,93.5,-0.0463,106
LRWD1,2,-0.935,63.3,-0.578,82.4
LRWD1,3,0.703,95.9,0.479,94.4
PLEKHA8,1,0.0787,83.5,-0.219,98.8
PLEKHA8,2,-1.49,52.3,-0.972,75.5
PLEKHA8,3,-0.578,70.4,-0.862,98.7
TRIM68,1,-0.0756,80.4,0.384,81.2
TRIM68,2,0.898,99.7,1.39,77.3
TRIM68,3,-0.868,64.6,-0.0294,72.8
TBX3,1,1.11,104,0.0755,114
TBX3,2,-1.18,58.3,-0.167,68.1
TBX3,3,-0.805,65.9,-1.21,101
ANTXRL,1,0.43,90.4,-0.017,102
ANTXRL,2,-0.394,74.1,-0.239,88.1
ANTXRL,3,1.69,115,1.36,90.2
IL26,1,4.46 (active),171,3.41,77.7
IL26,2,0.344,88.7,0.209,93.9
IL26,3,0.693,95.7,0.566,92.1
GNAQ,1,0.0133,82.2,0.22,86.6
GNAQ,2,0.0138,82.2,-0.0519,93.1
GNAQ,3,0.958,101,3.05,50.5

Copied from above (3 entries):
gene symbol,siRNA no.,"total luciferase, z-score","total luciferase, % of control","luciferase per cell, z-score","viable cells, % of control"
TBX3,3,-0.805,65.9,-1.21,101
ANTXRL,1,0.43,90.4,-0.017,102
ANTXRL,2,-0.394,74.1,-0.239,88.1
